Test results published in patent US12011443B2, “Pharmaceutical composition for preventing or treating nonalcoholic steatohepatitis” (J2H BIOTECH INC., priority 2018, dated 2024).
At least one compound was matched to its structure with a doubt left.

Tested on: non-alcoholic steatohepatitis prevention model, MCD feed, mice (C57BL/6)
Experiment: Non-alcoholic steatohepatitis prevention model (MCD feed with simultaneous administration for 12 weeks)
Format: in vivo
Settings: 10 mg/kg/day (G3, G4) oral once a day, 12 weeks with MCD feed; vs vehicle control group (G2)
Method: The efficacy of the test compound for preventing non-alcoholic steatohepatitis was evaluated. Using 7-week-old mice (C57BL/6), the normal group (G1) was supplied with general feed, and the vehicle control group (G2), positive control group (G3), and test groups (G4, G5) were supplied with the MCD feed for 12 weeks. Simultaneously with the MCD diet, test compounds and controls were administered orally once a day. Mice were divided into five groups, and a total of 75 mice, 15 mice per each group, were used for the experiment.
In order to evaluate the prophylactic efficacy, the test compound was administered for 12 weeks at the same time as induction with the MCD diet, and the efficacy of the test compound for the prevention of steatohepatitis was evaluated.
Each appropriate amount of the control compound (Obeticholic acid, 10 mg/kg/day) and the test compound was weighed, and then diluted in 0.5 wt % methyl cellulose aqueous solution to which 1 wt % Tween 80 was added. During oral administration, the weight of the mouse was measured, and the animals were fixed using the cervical skin fixation method, and each test substance was administered using a sonde for oral administration. […]

In the case of `CC[C@H]1[C@@H](O)[C@@H]2[C@H](CC[C@]3(C)[C@@H]([C@H](C)CCC(=O)O)CC[C@@H]23)[C@@]2(C)CC[C@@H](O)C[C@@H]12` [OCA, obeticholic acid, reference compound], the “triglycerides in liver tissue” value is reported as “statistically significant decrease”.
